Drug screen on melanoma cell lines: cell count

From a melanoma drug combination screen (doi:10.1371/journal.pone.0140310); values rounded.

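The test systems are human melanoma cell lines, treated with two drugs together for 72 h and then stained and imaged. Values are the number of DAPI-stained nuclei as a percentage of the DMSO control: 100 is no effect, lower means fewer cells. Concentrations were fixed for each drug; these are the higher of two levels. No replicate spread is given; individual values may be noisy.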
This is part of the screen, not chosen by result.
A dash means that no value is listed here.

Compounds and concentrations:
L-779450, 1000 nM: Oc1cc(-c2nc(-c3ccccc3)[nH]c2-c2ccncc2)ccc1Cl
FH535, 5000 nM: Cc1cc([N+](=O)[O-])ccc1NS(=O)(=O)c1cc(Cl)ccc1Cl
TCS401, 8330 nM: O=C(O)C(=O)Nc1sc2c(c1C(=O)O)CCNC2
PD173074, 500 nM: CCN(CC)CCCCNc1ncc2cc(-c3cc(OC)cc(OC)c3)c(NC(=O)NC(C)(C)C)nc2n1
KU-55933, 5000 nM: O=c1cc(-c2cccc3c2Sc2ccccc2S3)oc(N2CCOCC2)c1
BI-D1870, 1000 nM: CC(C)CCN1c2nc(Nc3cc(F)c(O)c(F)c3)ncc2N(C)C(=O)C1C (stereo not shown)
Src-I1, 10000 nM: COc1cc2ncnc(Nc3ccc(Oc4ccccc4)cc3)c2cc1OC
KU-0063794, 100 nM: COc1ccc(-c2ccc3c(N4CCOCC4)nc(N4C[C@@H](C)O[C@@H](C)C4)nc3n2)cc1CO
U73122, 2000 nM: COc1ccc2c(c1)CCC1C2CCC2(C)C(NCCCCCCN3C(=O)C=CC3=O)CCC12 (stereo not shown)

| Combination | IPC-298 | G-361 | 501mel | COLO 800 | C32 | COLO 829 | A375 | A2058 | COLO 792 | A101D |
|---|---|---|---|---|---|---|---|---|---|---|
| U73122 + FH535 | 46.4 | 37.4 | 71.5 | 53.5 | 69.3 | 86.8 | 78.1 | 72.2 | 59.7 | 44.6 |
| U73122 + PD173074 | 87.8 | 83.3 | 77.7 | 51.0 | 54.8 | 131 | 100 | 45.1 | 90.6 | 77.3 |
| KU-55933 + BI-D1870 | 70.9 | 42.9 | 61.1 | 77.4 | 86.2 | 101 | 96.4 | 80.9 | 75.4 | 67.4 |
| FH535 + Src-I1 | 41.4 | 26.1 | 47.3 | 77.5 | 86.5 | 82.8 | 104 | 81.2 | 48.3 | 49.0 |
| L-779450 + U73122 | 85.0 | 49.7 | 56.5 | 114 | 63.0 | 68.3 | 51.5 | 54.7 | 101 | 23.5 |
| KU-55933 + Src-I1 | 66.6 | 34.3 | 74.3 | 76.7 | 105 | 127 | 151 | 91.4 | 68.8 | 72.7 |
| L-779450 + BI-D1870 | 57.6 | 53.3 | 58.8 | 59.3 | 79.8 | 77.6 | 80.7 | 84.2 | 86.8 | 76.7 |
| KU-0063794 + FH535 | 43.9 | 45.7 | 72.6 | 91.8 | 83.1 | 73.2 | 71.4 | 69.8 | 66.3 | 73.7 |
| KU-55933 + L-779450 | 75.9 | 55.4 | 85.9 | 74.1 | 70.7 | 58.1 | 84.9 | 102 | 101 | 68.3 |
| L-779450 + PD173074 | 80.4 | 51.2 | - | 64.9 | 82.6 | 75.1 | 77.1 | 86.0 | 104 | 61.0 |
| KU-0063794 + KU-55933 | 77.5 | 80.1 | 125 | 65.0 | 87.6 | 98.5 | 117 | 87.6 | 71.6 | 77.3 |
| BI-D1870 + FH535 | 54.7 | 49.1 | 66.0 | 77.7 | 101 | 106 | 77.3 | 73.1 | 74.8 | 74.3 |
| KU-0063794 + BI-D1870 | 75.6 | 74.6 | 74.1 | 54.2 | 102 | 83.8 | 102 | 102 | 74.5 | 59.8 |
| PD173074 + Src-I1 | 102 | 93.6 | 85.5 | 102 | 94.7 | 124 | 136 | 100 | 71.9 | 103 |
| L-779450 + KU-0063794 | 77.8 | 56.6 | 65.5 | 110 | 88.7 | 86.4 | 99.6 | 91.8 | 90.0 | 77.9 |
| PD173074 + KU-55933 | 107 | 95.0 | 130 | 89.1 | 93.4 | 123 | 124 | 95.8 | 96.4 | 89.3 |
| TCS401 + L-779450 | 82.8 | 64.3 | 77.6 | 97.0 | 86.2 | 75.7 | 86.8 | 84.9 | 83.5 | 78.4 |
| BI-D1870 + Src-I1 | 64.0 | 26.2 | - | 60.0 | 76.2 | 100 | 117 | 82.2 | 51.4 | 58.9 |
| TCS401 + KU-0063794 | 78.0 | 92.0 | 103 | 109 | 95.9 | 83.1 | 139 | 88.2 | 82.9 | 89.5 |
| KU-55933 + FH535 | 49.2 | 47.6 | 82.1 | 66.9 | 89.9 | 85.7 | 79.3 | 70.5 | 65.8 | 59.6 |
| TCS401 + BI-D1870 | 81.2 | 72.7 | 72.7 | 65.2 | 99.2 | 84.1 | 148 | 95.8 | 81.5 | 79.0 |
| KU-55933 + U73122 | 89.6 | 73.6 | 93.9 | 68.8 | 76.5 | 123 | 93.0 | 84.4 | 108 | 67.3 |
| FH535 + L-779450 | 56.4 | 32.8 | 51.1 | 82.6 | 79.0 | 66.4 | 93.5 | 84.1 | 75.0 | 75.8 |
| Src-I1 + U73122 | 71.3 | 24.1 | 75.2 | 52.3 | 71.0 | 103 | 106 | 71.2 | 57.0 | 59.0 |
| TCS401 + U73122 | 83.9 | 78.9 | 94.9 | 102 | 54.7 | 86.2 | 94.8 | 57.6 | 76.0 | 66.4 |
| KU-55933 + TCS401 | 94.5 | 93.2 | 101 | 110 | 103 | 85.5 | 190 | 125 | 91.6 | 80.7 |
| FH535 + PD173074 | 46.6 | 45.4 | 56.4 | 41.6 | 73.4 | 75.5 | 67.2 | 74.7 | 59.6 | 66.1 |
| Src-I1 + KU-0063794 | 58.2 | 43.2 | 80.8 | 107 | 83.5 | 95.9 | 107 | 65.7 | 52.8 | 76.6 |
| KU-0063794 + PD173074 | 72.8 | 74.8 | 97.9 | 63.3 | 98.3 | 92.7 | 106 | 85.5 | 77.4 | 103 |
| KU-0063794 + U73122 | 82.7 | 75.4 | 87.8 | 94.9 | 85.3 | 107 | 72.6 | 60.6 | 85.6 | 51.5 |
| Src-I1 + TCS401 | 104 | 100 | 106 | 131 | 126 | 136 | 167 | 134 | 74.4 | 86.2 |
| BI-D1870 + PD173074 | 71.7 | 60.2 | 67.6 | 42.0 | 98.7 | 96.1 | 87.9 | 88.9 | 82.3 | 68.9 |
| Src-I1 + L-779450 | 83.9 | 64.1 | 71.7 | 83.3 | 96.0 | 85.0 | 136 | 95.5 | 87.2 | 58.3 |
| TCS401 + FH535 | 53.4 | 42.2 | 71.7 | 76.6 | 74.1 | 82.4 | 132 | 78.8 | 63.0 | 66.2 |